Measurements published in article PMC8445998 (Nature Communications, 2021).
No constants are given. Whether binding was seen depends on the method and setting. Binding seen in cells or lysates may run through a third protein. Some binding calls cover weakened binding; strength is not graded here. Where a sequence is shown, tags or fusion partners need not be part of it.

Protein sequences, listed by entry. Tags and fused reporters are not part of them. Lines headed by an entry give the natural chain unless they say otherwise; changes in a name come on top.
UniProt Q6PL11: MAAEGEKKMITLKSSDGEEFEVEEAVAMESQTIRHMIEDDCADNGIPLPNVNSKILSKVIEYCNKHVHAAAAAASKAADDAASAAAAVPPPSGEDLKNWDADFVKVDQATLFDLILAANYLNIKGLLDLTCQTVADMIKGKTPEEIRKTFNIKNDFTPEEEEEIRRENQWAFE

Target: T1, OsCOI1b-FLAG (rice) (UniProt Q60EH4)
T1 sequence: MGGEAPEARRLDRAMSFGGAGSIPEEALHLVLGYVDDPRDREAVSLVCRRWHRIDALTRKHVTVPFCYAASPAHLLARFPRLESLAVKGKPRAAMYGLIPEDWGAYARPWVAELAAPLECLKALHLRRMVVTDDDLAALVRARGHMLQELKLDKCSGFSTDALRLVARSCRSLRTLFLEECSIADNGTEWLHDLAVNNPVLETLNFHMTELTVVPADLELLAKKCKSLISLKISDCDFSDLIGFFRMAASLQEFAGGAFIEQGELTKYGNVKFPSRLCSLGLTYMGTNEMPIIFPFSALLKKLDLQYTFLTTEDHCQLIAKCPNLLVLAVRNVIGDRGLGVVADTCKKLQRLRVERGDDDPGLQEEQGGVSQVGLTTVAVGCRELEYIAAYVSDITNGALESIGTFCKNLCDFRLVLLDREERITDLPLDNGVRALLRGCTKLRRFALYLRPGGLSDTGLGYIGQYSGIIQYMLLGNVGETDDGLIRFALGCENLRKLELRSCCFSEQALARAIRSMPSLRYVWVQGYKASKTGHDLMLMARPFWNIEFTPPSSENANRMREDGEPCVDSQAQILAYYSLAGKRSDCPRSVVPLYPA
Assay: co-IP

| binding | Substance |
| --- | --- |
| binds | OSK1-HA (from UniProt Q6PL11 1-173) |
| binds | OSK1^S53D-HA (from UniProt Q6PL11 1-173) |
